Values quoted from earlier work in patent publication US20210387990A1, “METHOD FOR PRODUCING DIMETHOXYBENZENE COMPOUND” (TAIHO PHARMACEUTICAL CO., LTD., priority 2018, published 2021).

Columns and labels:
[1] = reported in PTL 4 to 8; cited from earlier work
[2] = system: fibroblast growth factor receptor (FGFR); conditions: reported in PTL 4 to 8; cited from earlier work

C=CC(=O)N1CC[C@H](n2nc(C#Cc3cc(OC)cc(OC)c3)c3c(N)ncnc32)C1 [compound A, (S)-1-(3-(4-amino-3-((3,5-dimethoxyphenyl)ethynyl)-1H-pyrazolo[3,4-d]pyrimidin-1-yl)pyrrolidin-1-yl)-2-propen-1-one]
antitumor activity [1]: exhibiting antitumor activity
inhibitory activity on the fibroblast growth factor receptor (FGFR) [2]: excellent inhibitory activity
